# Assay results: the supplement of paper PMC11732987, “Enantioselective OTUD7B fragment discovery through chemoproteomics screening and high-throughput optimisation” (Communications Chemistry, 2025)
# Chains of the proteins cited; added tags and fusions are not shown. Lines headed by an entry give the natural chain unless they say otherwise; changes in a name come on top. Residues count along the entry.
# UniProt P46199: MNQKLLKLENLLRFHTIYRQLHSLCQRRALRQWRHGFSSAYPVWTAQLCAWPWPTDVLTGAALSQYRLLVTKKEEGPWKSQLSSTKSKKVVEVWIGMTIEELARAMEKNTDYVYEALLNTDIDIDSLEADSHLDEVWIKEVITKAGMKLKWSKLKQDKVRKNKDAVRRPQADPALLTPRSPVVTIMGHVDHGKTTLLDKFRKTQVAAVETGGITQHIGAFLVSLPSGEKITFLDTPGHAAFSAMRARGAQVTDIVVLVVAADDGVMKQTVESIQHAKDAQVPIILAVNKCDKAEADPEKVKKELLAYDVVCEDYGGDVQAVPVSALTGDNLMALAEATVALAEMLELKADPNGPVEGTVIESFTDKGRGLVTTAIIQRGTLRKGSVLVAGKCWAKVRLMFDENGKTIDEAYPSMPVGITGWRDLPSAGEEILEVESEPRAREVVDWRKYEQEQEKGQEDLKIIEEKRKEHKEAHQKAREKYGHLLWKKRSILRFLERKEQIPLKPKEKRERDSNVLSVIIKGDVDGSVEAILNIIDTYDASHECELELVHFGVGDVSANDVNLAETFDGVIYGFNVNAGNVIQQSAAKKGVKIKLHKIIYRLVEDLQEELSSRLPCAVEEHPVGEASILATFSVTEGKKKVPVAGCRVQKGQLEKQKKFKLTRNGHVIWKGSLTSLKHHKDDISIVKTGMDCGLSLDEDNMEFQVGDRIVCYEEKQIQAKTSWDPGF
# UniProt Q9NXD2, 92-115: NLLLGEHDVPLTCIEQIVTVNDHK
# UniProt Q9C0I1: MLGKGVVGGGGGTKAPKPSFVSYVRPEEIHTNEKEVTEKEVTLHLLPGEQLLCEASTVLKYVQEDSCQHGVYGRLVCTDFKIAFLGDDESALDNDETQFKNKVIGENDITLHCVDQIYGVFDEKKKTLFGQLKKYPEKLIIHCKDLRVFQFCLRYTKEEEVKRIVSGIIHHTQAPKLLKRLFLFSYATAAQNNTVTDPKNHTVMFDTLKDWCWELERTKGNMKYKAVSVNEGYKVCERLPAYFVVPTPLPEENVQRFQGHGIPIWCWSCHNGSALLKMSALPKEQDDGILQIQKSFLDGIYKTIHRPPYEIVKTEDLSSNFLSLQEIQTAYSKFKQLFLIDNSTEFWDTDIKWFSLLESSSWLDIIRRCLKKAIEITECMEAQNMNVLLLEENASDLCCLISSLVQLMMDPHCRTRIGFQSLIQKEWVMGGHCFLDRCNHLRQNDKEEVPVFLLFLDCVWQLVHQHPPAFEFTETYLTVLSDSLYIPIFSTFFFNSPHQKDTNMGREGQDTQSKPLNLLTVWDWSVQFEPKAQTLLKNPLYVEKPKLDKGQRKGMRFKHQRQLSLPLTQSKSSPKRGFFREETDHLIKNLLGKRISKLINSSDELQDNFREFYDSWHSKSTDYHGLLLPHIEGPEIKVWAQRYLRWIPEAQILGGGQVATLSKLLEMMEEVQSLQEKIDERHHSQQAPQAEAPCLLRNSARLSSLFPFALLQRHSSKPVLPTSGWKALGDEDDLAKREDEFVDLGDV
# UniProt Q6P1R3: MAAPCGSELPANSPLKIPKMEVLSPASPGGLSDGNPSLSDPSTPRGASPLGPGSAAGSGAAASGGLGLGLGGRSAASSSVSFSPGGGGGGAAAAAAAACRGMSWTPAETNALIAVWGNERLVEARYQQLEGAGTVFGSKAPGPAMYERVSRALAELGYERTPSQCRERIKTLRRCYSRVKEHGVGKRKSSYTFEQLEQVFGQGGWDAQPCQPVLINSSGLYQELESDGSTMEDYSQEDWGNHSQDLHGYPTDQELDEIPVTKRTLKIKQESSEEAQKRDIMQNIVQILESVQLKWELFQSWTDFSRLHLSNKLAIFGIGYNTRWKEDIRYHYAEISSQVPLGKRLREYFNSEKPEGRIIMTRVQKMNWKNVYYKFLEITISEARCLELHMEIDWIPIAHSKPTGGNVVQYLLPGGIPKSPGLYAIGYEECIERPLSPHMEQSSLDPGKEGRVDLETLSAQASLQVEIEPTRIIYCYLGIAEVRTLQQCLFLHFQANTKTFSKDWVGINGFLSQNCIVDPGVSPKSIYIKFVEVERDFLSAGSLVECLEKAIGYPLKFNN
# UniProt P35580, 87-106: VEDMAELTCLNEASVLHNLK
# UniProt O00159, whole entry, looked up: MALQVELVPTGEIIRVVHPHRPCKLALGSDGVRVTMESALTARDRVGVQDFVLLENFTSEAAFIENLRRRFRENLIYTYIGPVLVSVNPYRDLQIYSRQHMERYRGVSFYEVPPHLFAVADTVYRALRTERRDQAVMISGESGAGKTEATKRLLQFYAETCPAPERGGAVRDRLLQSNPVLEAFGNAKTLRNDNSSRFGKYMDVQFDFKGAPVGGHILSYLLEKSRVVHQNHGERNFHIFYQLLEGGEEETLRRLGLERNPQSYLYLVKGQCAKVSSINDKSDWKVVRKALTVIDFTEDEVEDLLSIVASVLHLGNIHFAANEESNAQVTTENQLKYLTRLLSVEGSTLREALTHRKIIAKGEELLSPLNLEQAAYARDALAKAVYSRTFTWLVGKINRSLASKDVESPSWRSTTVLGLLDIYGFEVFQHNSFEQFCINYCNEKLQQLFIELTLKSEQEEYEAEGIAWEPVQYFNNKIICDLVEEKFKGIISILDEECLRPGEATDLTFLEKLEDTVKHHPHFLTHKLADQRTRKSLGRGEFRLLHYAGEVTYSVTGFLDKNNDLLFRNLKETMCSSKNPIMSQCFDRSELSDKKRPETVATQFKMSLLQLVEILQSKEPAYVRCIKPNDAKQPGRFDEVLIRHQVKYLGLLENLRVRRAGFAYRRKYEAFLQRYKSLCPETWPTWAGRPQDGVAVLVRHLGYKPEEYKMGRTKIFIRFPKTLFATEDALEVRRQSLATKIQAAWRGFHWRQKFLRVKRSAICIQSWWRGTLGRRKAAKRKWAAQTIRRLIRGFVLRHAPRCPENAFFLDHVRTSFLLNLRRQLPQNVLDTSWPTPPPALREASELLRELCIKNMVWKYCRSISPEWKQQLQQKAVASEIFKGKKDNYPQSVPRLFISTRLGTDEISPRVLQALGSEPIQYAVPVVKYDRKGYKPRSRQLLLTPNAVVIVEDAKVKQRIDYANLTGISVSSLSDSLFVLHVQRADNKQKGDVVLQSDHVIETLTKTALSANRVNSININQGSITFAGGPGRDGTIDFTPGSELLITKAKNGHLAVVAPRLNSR
# UniProt Q6XQN6: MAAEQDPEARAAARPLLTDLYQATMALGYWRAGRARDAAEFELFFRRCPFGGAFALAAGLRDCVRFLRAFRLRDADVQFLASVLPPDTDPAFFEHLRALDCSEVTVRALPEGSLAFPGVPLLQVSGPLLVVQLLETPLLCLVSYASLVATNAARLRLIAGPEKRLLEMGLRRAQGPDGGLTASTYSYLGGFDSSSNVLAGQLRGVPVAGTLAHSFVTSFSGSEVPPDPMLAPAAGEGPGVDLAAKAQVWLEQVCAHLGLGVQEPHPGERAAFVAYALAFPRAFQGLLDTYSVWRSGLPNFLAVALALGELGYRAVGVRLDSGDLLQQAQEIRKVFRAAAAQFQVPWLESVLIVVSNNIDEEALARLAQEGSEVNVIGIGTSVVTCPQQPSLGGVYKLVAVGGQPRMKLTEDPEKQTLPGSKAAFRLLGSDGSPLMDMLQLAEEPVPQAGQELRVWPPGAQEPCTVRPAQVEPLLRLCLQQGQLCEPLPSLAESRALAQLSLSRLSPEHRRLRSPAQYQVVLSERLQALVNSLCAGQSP
# UniProt Q9H4K7, 169-190: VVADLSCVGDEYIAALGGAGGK
# UniProt Q96H55, whole entry, looked up: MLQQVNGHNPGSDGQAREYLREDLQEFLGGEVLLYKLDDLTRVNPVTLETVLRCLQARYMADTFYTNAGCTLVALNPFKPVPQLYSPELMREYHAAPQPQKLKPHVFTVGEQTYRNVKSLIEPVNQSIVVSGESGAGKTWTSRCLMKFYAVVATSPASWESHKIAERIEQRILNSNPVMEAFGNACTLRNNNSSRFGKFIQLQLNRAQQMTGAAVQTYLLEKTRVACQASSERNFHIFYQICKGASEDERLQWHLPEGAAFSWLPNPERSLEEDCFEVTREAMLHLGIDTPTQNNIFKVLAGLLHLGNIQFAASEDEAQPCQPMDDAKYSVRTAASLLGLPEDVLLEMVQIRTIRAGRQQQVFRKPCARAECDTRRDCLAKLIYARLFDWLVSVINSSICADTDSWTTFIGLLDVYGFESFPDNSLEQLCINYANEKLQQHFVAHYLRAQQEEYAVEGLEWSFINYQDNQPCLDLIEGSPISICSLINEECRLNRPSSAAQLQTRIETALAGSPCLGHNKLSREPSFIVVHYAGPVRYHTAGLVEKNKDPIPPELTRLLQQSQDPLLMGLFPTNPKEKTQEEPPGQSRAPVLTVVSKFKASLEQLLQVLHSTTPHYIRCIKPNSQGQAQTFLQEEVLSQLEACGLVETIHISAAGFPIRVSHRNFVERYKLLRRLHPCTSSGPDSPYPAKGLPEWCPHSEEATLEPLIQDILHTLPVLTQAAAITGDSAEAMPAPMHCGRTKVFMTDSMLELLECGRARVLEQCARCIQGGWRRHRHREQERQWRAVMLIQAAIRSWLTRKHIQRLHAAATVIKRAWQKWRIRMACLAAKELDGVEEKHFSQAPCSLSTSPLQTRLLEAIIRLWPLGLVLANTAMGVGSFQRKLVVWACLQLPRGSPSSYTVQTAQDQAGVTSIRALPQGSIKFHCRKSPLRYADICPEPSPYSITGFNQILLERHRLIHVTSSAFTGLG
# UniProt Q9Y4B5: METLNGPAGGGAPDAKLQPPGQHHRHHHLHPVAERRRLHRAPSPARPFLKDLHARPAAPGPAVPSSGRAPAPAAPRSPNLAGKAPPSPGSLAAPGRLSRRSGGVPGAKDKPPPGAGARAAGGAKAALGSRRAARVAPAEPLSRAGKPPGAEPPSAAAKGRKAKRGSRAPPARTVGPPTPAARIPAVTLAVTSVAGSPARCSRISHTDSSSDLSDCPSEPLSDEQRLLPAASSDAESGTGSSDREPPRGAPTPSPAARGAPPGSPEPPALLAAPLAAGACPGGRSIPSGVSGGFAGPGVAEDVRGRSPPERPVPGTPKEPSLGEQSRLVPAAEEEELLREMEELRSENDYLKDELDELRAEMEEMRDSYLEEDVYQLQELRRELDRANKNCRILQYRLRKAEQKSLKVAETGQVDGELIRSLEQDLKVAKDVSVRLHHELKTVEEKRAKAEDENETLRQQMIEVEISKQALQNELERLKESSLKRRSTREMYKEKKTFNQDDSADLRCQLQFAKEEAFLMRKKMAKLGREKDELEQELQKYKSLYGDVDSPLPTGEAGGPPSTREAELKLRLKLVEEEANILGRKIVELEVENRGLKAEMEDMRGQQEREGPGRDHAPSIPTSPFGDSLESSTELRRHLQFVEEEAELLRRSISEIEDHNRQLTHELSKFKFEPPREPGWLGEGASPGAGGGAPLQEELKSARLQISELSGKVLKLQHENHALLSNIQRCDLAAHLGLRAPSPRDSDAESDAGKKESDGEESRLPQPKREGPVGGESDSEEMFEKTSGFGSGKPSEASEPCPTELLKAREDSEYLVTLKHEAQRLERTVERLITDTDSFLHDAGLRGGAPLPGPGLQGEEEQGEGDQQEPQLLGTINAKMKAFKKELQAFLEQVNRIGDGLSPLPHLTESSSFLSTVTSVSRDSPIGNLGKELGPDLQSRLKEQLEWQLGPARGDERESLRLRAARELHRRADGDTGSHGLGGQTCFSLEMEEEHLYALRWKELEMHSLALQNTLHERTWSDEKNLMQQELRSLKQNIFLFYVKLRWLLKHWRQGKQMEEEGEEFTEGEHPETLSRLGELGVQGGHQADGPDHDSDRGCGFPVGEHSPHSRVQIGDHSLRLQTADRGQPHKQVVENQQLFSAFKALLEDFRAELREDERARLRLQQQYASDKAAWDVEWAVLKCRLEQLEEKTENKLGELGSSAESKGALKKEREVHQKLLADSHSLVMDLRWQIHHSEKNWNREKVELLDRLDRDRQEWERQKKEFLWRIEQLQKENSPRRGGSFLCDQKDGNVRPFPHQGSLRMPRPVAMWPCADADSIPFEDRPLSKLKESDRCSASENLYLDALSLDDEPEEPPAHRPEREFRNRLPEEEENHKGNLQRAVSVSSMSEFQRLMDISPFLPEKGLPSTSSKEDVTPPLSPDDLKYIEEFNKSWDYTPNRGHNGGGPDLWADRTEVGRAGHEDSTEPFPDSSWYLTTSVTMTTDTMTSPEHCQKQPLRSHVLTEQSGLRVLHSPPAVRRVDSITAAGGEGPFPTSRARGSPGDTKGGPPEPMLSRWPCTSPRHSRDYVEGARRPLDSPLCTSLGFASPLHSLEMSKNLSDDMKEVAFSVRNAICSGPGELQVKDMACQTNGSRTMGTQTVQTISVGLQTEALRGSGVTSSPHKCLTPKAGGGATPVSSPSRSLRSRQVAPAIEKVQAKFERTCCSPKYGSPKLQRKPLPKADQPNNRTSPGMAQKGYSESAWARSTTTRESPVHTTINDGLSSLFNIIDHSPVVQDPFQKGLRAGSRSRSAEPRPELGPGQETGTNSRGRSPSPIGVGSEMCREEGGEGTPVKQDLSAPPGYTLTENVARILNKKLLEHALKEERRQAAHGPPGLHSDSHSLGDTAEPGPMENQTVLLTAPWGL
# This is one part of the list. The data scatter; read single values as rough.
# Assays:
# [1] = compound: ClCC(=O)N[C@@H]1CCCc2ccccc12; experiment: log2 mean competition ratio of IA-DTB cysteine labelling (DMSO/compound) (log2 ratio); higher = stronger cysteine engagement by compound; conditions: treatment time: 4 h, cell line lysate: HEK293T
# Protocol: (§1)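 IA-DTB competitive cysteine chemoproteomics in HEK293T RIPA lysate. Lysates were treated with compound 29 or 30 at 50 or 200 µM for 4 h, then IA-DTB (500 µM, 1 h), trypsin-digested, NeutrAvidin-enriched and analysed by diaPASEF. Competition ratio = intensity DMSO / intensity compound (n=4 treated, n=64 DMSO); binding: mean log2 CR ≥ 1 and p ≤ 0.05 plus QC filters. Target is the cysteine site.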
# [2] = compound: ClCC(=O)N[C@H]1CCCc2ccccc12; experiment: as above; conditions: treatment time: 4 h, cell line lysate: HEK293T
# Protocol: as §1
Target,log2 mean competition ratio ([1]; 50 µM),log2 mean competition ratio ([1]; 200 µM),log2 mean competition ratio ([2]; 50 µM),log2 mean competition ratio ([2]; 200 µM)
MSH2 C404 (UniProt P43246),-0.121,0.111,0.177,0.277
MYO1D C666 (UniProt O94832),-0.0756,0.00902,-0.667,-0.0438
NAMPT C401,0.0191,-0.0241,-0.242,0.281
MYL6 C2,-0.19,-0.181,0.173,0.131
N4BP2L2 C578,0.0961,-0.0181,-0.175,0.101
MTFR1 C145 (UniProt Q15390),0.625,0.271,0.238,0.233
MTIF2 C646 (UniProt P46199),-0.211,-0.0513,-0.0846,-0.0105
MYORG C125,-0.0904,0.0569,-0.0959,0.411
MTMR10 C104 (UniProt Q9NXD2),-0.367,0.324,0.051,-0.213
MTREX C938 (UniProt P42285),-0.366,0.141,-0.0904,0.111
MTMR12 C694 (UniProt Q9C0I1),0.0318,0.384,-0.0012,0.117
MTO1 C520 (UniProt Q9Y2Z2),-0.12,0.0354,0.146,0.0998
MTMR10 C564 (UniProt Q9NXD2),0.211,0.44,0.128,0.185
MYO6 C790 (UniProt Q9UM54),0.508,0.339,0.369,0.0752
MTHFD1L C302,-0.0302,0.246,-0.139,0.148
MRPL44 C167 (UniProt Q9H9J2),-0.272,0.273,-0.17,0.00828
MVK C339 (UniProt Q03426),0.447,0.0591,0.57,-0.0741
MYO1D C143 (UniProt O94832),0.0652,0.0365,0.0739,0.0861
MSH2 C199 (UniProt P43246),-0.0487,-0.267,0.121,-0.176
MTARC2 C272,-0.198,0.14,-0.275,0.0936
MRPL53 C63 (UniProt Q96EL3),-0.183,0.113,-0.371,0.119
MSI2 C168 (UniProt Q96DH6),-0.135,-0.226,-0.162,-0.235
MSANTD2 C5 (UniProt Q6P1R3),-0.154,-0.0912,-0.21,0.057

# Shown with bars between the fields: part of the list above.
Target | log2 mean competition ratio ([1]; 50 µM) | log2 mean competition ratio ([1]; 200 µM) | log2 mean competition ratio ([2]; 50 µM) | log2 mean competition ratio ([2]; 200 µM)
MSI2 C168 (UniProt Q96DH6) | -0.135 | -0.226 | -0.162 | -0.235
MSANTD2 C5 (UniProt Q6P1R3) | -0.154 | -0.0912 | -0.21 | 0.057

# Remaining list, next part.

Target,log2 mean competition ratio ([1]; 50 µM),log2 mean competition ratio ([1]; 200 µM),log2 mean competition ratio ([2]; 50 µM),log2 mean competition ratio ([2]; 200 µM)
MRPL39 C133 (UniProt Q9NYK5),-0.136,0.16,-0.284,0.0967
MTA1 C281 (UniProt Q13330),0.102,-0.0594,-0.0902,0.115
MYH10 C95 (UniProt P35580),0.091,-0.289,-0.269,-0.559
MYO1C C585 (UniProt O00159),0.479,0.191,0.411,0.235
NAB2 C499 (UniProt Q15742),0.381,-0.0693,0.434,-0.174
MTRF1L C274 (UniProt Q9UGC7),-0.403,0.029,-0.128,0.12
MYSM1 C169 (UniProt Q5VVJ2),-0.144,0.185,-0.0816,0.00836
MTHFD1 C785,0.195,0.0685,0.21,0.0156
MYH10 C1011 (UniProt P35580),0.0198,-0.215,-0.524,-0.321
MTMR2 C155 (UniProt Q13614),-0.174,-0.105,-0.0426,-0.0831
NAA15 C465,-0.201,-0.006,-0.072,0.213
MRPL44 C53 (UniProt Q9H9J2),-0.174,-0.0476,-0.14,0.0264
MYO9A C1612 (UniProt B2RTY4),-0.0314,-0.116,0.115,0.0623
MTO1 C707 (UniProt Q9Y2Z2),0.107,0.344,-0.36,0.183
NAPRT C101 (UniProt Q6XQN6),-0.338,-0.112,-0.512,-0.392
MYBBP1A C942 (UniProt Q9BQG0),0.0746,-0.185,0.031,-0.237
MTG2 C175 (UniProt Q9H4K7),-0.265,0.485,-0.301,0.117
MSH3 C763 (UniProt P20585),0.14,-0.313,0.185,-0.238
MXI1 C100,-0.0276,0.163,0.0936,0.204
MYO19 C275 (UniProt Q96H55),-0.192,0.215,-0.323,0.0869
MTERF1 C62,0.606,-0.0269,0.174,0.0195
MTCL1 C1628 (UniProt Q9Y4B5),-0.0785,0.0454,0.063,0.0679
MRPL20 C93 (UniProt Q9BYC9),0.347,-0.0689,0.476,-0.119
